Reference: patent publication US7358379B2, “Steroid conjugates, preparation thereof and the use thereof” (Bionature E.A. Limited, priority 2002, dated 2008)
At least one compound was matched to its structure with a doubt left.

Tested on: membrane testosterone receptors in LNCaP cells
Experiment: Displacement binding of [3H]testosterone on LNCaP cell membranes
Design: species or system human
Details: 5 nM [3H]testosterone, competitor 10^-12-10^-6 M, compared with DHT
Protocol: Cells, cultured in 150 cm^2 flasks without serum, were washed twice with phosphate-buffered saline (PBS), removed by scraping and centrifuged at 1500 rpm. Pelleted cells were homogenized by sonication in 50 mM Tris-HCl buffer pH 7.4 containing freshly added protease inhibitors (10 μg/ml PMSF and 1 μg/ml aprotinin). Unbroken cells were removed by centrifugation at 2500 g for 15 min. Membranes were obtained by centrifugation at 45,000 g for 1 hour, and washed once by the same buffer. Protein concentration was measured by the method of Bradford.
Saturation binding experiments were performed in a final volume of 0.1 ml, containing cell membranes at a final protein concentration of 2 mg/ml and at least 6 different concentrations of [^3H]testosterone (ranging 2-50 nM) without (total binding) or with (non-specific binding) a 100-fold molar excess of unlabelled androgen (DHT). […] In both types of binding experiments, after an overnight incubation at 4° C., bound radioactivity was separated by filtration under reduced pressure through GF/B filters previously soaked in 0.5% polyethylenimine (PEI) in water and rinsed three times with ice-cold Tris-HCl buffer. Filters were mixed with 4 ml scintillation cocktail and the bound radioactivity was counted in a scintillation counter (Tricarb, Series 4000, Packard) with 60% efficiency for Tritium. […]

SMILES: C[C@]12CC[C@@H]3c4ccc(O)cc4CC[C@H]3[C@@H]1CC[C@@H]2O [estradiol]
- lower affinity in displacing radiolabelled testosterone (fold): 10^4 fold
